Measured values from patent publication US8846012B2, “Melanin production inhibitor” (Pola Chemical Industries Inc., priority 2008, dated 2014).
Entries after “also recorded” stand apart in the source; their conditions may differ. At least one compound was matched to its structure with a doubt left. Some results were stated once for a whole list of compounds, not compound by compound.

Assays:
normal human melanocytes = test: Melanin production inhibition test using cultured normal human melanocytes (14C-thiouracil incorporation); type: cell-based; conditions: concentrations that did not inhibit proliferation of cells
Method: The inhibitory effect on melanin production of the melanin production inhibitor of the present invention can be measured using thiouracil which is incorporated specifically into cells in a melanin synthesis process in the cells. For example, the amount of melanin production can be measured by measuring an amount of thiouracil incorporated into cells by measuring an amount of radiation with radiolabeled thiouracil.
The inhibitory effect on melanin production of Compound 1 was evaluated using 2-thiouracil (^14C-labeled 2-thiouracil was used in this test) which is incorporated specifically into melanin in an intracellular melanin synthesis process. Complete medium for culture of melanocytes (manufactured by Kurabo Industries Ltd.) was added to 15 wells in a 24-well plate in an amount of 2 mL per well, and normal human melanocytes (manufactured by Kurabo Industries Ltd.) were seeded into the wells at a concentration of 1.5×10^4 cells/cm^2. The cells were cultured in a 5% carbon dioxide atmosphere at 37° C. for 24 hours. Thereafter, the medium in all the wells was exchanged under the following conditions: fresh complete medium for culture of melanocytes (control) was used in three wells; each of complete medium for culture of melanocytes, which including Compound 1 at concentrations of 1.0 μM, 2.0 μM, and 4.0 μM, was used in a total of nine wells including three wells for each concentration; and complete medium for culture of melanocytes, each of which including arbutin (positive control) known as a melanin production inhibitor at a concentration of 0.5 mM (500 μM), was used in the other three wells. Further, 2-[2-^14C]thiouracil (^14C-labeled thiouracil) was added to each of these 15 wells at 0.25×10^−6 Ci (curie). Then, the cells were cultured for further 3 days under the same conditions as the above. After the completion of culture, the culture medium was removed from the wells, and the cells were washed with phosphate buffered physiological saline (PBS) and then separated from the bottoms of the wells with medium including trypsin and EDTA to prepare cell suspensions, followed by centrifugation to collect the cells. The number of the cells was counted using a hemocytometer. Thereafter, the amounts of ^14C-thiouracil in the cells collected from each well (0.25×10^−6 Ci) were measured using a liquid scintillation counter (ALOKA CO., LTD.). The percentages of an amount of radioactivity in the cells cultured in the medium including the test substances with respect to an amount of radioactivity in the cells collected from the well of the control were calculated as amounts of melanin (%). That is, as the amount of radioactivity incorporated into the cells is smaller, the amount of melanin is evaluated to be smaller, i.e., the melanin inhibition effect of the component added is evaluated to be larger.
Inhibitory effects on melanin production of Compounds 2 to 39 (however, the effects of Compound 9 and 15 were not measured) were examined in the same procedure as in Test Example 1.
These were examined in the same procedure as in Test Example 1.
Further, the results of melanin production inhibition by treatment with the respective test compounds, determined in the same procedure as in Test Example 1, are also shown in the table.

[1] = tested on: Trichopyton mentagrophytes (ATCC18748); test: Measurement of antimycotic activity (Alamar Blue growth inhibition of dermatophytes); type: cell-based
Method: 10.4 g of RPMI1640 (manufactured by SAFC Biosciences) were dissolved in 900 mL of distilled water, and 34.53 g of a 0.165 M MOPS buffer (manufactured by DOJINDO LABORATORIES) were added and dissolved by stirring.
Dermatophytes (Trichopyton mentagrophytes (ATCC18748)) were inoculated into a 1/10 Sabouraud Dextrose agar medium (manufactured by DIFCO) and cultured at 28° C. for 14 days, and then a conidial suspension was prepared using 0.1% Tween80-including physiological saline. The suspension was filtered through gauze, and the number of the conidia was counted using a hemocytometer and then adjusted to 2.5×10^5/mL with the RPMI1640 medium. The resultant suspension was used as an inoculum.
Compound 5 and clotrimazole were diluted with the RPMI1640 medium to prepare 0.3125, 0.625, 1.25, 2.5, 5, 10, 20, and 200 μg/mL diluted solutions. […] 120 hours from beginning of culture, i.e., when the growth control became obviously red (reduced form), absorbance measurement at 570 nm was performed using a microplate reader (SPECTRAMAX 250, manufactured by Molecular Device).
The test compounds were tested at the respective concentrations in triplicate. […] Growth inhibition rate (%)=[1−(average absorbance value in test compound-added wells-average absorbance value of negative control)/(average absorbance value of growth control-average absorbance value of negative control)]×100 […]

| Structure (SMILES) | inhibitory effect on melanin production (in words) (normal human melanocytes) | antimycotic activity (in words) [1] | growth inhibitory effect on Trichopyton mentagrophytes (in words) ([1]; added at a concentration of 100 μg/mL) |
| --- | --- | --- | --- |
| c1ccc(C(c2ccccc2)(c2ccccc2)N2CCCC2)cc1 [Compound 6, 1-(triphenylmethyl)pyrrolidine] | excellent inhibitory effects on melanin production | – | – |
| Cc1ccc(C(c2ccc(C)cc2)N2CCCC2)cc1 [Compound 29, 1-[bis(4-methylphenyl)methyl]pyrrolidine] | excellent inhibitory effects on melanin production | – | – |
| c1ccc(C(c2ccccc2)(c2ccccc2)N2CCCCC2)cc1 [Compound 5, 1-(triphenylmethyl)piperidine] | excellent inhibitory effects on melanin production | no antimycotic activity | did not inhibit the growth; also recorded: no growth inhibitory effect |
| OC(c1ccccc1)(c1ccccc1)c1ccncc1 [Compound 9, [diphenyl(4-pyridyl)]methanol] | excellent inhibitory effects on melanin production | – | – |
| Cc1ccc(C(c2ccccc2)(c2ccccc2)N2CCCCC2)cc1 [Compound 25, [[diphenyl(4-methylphenyl)]methyl]piperidine] | excellent inhibitory effects on melanin production | – | – |
